For assay [1], the target named is EphA2 receptor (human (endogenous in RDES)) (UniProt P29317). Nature of the assay: co-IP; lysate of the RDES model (500 µg protein) in 50 mM Tris-HCl pH 7.6, 150 mM NaCl, 1% NP-40 with protease and phosphatase inhibitors; immunoprecipitated with anti-CAV1 or anti-EphA2 antibody on Protein G magnetic beads, immunoblot; normal IgG as control. In general terms: In western blotting, separated proteins are transferred to a membrane and probed.

Protein sequences, listed by entry. Tags and fused reporters are not part of them. Residues count along the entry.
UniProt P29317, residues 24-976: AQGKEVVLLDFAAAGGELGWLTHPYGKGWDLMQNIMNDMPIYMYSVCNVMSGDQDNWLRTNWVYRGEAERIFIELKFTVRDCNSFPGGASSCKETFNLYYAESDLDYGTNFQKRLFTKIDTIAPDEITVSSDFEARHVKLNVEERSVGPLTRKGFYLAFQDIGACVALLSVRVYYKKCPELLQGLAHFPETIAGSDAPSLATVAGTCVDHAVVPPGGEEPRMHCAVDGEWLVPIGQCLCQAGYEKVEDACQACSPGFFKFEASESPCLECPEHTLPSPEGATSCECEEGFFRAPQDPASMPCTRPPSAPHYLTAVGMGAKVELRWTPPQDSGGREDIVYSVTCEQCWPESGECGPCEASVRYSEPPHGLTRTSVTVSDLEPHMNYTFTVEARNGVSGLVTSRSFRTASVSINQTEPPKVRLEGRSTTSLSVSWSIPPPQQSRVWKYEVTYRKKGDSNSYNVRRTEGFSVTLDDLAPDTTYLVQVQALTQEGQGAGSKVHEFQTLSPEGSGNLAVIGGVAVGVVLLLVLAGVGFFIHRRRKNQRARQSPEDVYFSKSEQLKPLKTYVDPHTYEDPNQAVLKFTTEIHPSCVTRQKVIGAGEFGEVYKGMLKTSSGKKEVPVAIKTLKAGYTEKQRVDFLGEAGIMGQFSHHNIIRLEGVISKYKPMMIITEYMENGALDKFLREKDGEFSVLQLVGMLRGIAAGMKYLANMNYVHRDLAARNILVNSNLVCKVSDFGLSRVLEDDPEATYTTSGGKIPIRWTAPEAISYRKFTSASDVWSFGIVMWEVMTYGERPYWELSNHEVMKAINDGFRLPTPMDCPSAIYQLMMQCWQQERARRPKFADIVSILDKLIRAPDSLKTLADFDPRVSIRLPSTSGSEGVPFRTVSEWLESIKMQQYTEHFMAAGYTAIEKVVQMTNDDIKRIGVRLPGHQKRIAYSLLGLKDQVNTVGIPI
UniProt Q03135: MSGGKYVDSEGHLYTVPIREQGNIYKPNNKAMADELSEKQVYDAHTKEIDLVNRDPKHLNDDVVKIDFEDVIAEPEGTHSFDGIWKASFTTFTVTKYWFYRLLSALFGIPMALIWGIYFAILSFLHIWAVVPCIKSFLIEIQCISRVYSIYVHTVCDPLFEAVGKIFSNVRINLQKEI

Assay [2] deals with Caveolin-1 (human (endogenous in RDES)) (UniProt Q03135). The description is as above.

No constants are given. Whether binding was seen depends on the method and setting. In cells and extracts the contact can be indirect. Some results given as binding are weak or reduced against the parent protein; the word gives no strength.

With Caveolin-1 (from UniProt Q03135 1-178), the binding entry in assay [1] is on record as “binds”.

On to “EphA2 receptor (from UniProt P29317 24-976)”, for which the binding result in assay [2] is recorded as “binds”.
